Experimental data published in the supplement of paper PMC12823440, “Inhibitors supercharge kinase turnover through native proteolytic circuits” (Nature, 2025).
Structures can show the parent of a compound that is named as a salt. The list shows a part of the results. The calls rarely recur for the same compound in another form.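 Kinases, fused to nanoluciferase, were expressed in K562 cells; luminescence was measured every 4 h from 2 to 18 h as percent of control (DMSO = 100%, positive control = 0%). A time point is decreased if signal falls significantly (2 sigma). Hits were called by the authors by a rule that is not shown; the count of time points alone does not decide it.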

Sequences of proteins named here, by UniProt entry; tags and fusion partners are left off. A change or cut given only in a name is not applied to a line headed by its entry.
UniProt P07949, whole entry, looked up: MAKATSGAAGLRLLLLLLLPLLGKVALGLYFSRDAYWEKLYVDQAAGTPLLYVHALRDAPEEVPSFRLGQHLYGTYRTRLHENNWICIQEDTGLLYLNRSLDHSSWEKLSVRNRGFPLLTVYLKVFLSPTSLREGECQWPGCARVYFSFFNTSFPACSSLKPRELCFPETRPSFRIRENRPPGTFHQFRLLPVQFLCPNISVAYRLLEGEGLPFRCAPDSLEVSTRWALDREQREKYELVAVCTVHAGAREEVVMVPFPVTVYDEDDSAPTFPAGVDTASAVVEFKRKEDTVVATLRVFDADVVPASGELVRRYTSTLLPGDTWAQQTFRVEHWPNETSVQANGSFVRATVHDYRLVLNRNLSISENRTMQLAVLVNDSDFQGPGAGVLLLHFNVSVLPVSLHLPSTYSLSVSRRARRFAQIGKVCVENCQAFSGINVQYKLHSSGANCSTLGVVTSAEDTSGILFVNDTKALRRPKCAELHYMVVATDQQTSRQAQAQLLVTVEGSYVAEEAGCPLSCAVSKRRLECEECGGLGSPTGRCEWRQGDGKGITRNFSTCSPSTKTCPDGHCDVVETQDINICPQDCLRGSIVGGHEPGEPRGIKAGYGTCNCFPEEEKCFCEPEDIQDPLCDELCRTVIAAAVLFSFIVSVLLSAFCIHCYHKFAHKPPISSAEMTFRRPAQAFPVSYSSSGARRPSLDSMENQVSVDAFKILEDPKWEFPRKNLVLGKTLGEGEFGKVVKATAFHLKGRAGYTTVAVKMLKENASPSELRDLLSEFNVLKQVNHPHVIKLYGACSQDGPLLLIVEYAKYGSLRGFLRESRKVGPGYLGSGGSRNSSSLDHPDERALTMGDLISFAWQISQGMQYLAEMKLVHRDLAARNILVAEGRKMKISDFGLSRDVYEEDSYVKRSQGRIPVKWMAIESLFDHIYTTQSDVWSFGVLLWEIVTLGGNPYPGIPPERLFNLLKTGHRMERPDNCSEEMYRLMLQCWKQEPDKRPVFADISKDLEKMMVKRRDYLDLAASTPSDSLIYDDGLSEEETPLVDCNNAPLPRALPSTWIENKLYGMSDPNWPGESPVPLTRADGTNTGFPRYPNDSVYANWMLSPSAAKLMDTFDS
UniProt P07949, whole entry M918T, looked up: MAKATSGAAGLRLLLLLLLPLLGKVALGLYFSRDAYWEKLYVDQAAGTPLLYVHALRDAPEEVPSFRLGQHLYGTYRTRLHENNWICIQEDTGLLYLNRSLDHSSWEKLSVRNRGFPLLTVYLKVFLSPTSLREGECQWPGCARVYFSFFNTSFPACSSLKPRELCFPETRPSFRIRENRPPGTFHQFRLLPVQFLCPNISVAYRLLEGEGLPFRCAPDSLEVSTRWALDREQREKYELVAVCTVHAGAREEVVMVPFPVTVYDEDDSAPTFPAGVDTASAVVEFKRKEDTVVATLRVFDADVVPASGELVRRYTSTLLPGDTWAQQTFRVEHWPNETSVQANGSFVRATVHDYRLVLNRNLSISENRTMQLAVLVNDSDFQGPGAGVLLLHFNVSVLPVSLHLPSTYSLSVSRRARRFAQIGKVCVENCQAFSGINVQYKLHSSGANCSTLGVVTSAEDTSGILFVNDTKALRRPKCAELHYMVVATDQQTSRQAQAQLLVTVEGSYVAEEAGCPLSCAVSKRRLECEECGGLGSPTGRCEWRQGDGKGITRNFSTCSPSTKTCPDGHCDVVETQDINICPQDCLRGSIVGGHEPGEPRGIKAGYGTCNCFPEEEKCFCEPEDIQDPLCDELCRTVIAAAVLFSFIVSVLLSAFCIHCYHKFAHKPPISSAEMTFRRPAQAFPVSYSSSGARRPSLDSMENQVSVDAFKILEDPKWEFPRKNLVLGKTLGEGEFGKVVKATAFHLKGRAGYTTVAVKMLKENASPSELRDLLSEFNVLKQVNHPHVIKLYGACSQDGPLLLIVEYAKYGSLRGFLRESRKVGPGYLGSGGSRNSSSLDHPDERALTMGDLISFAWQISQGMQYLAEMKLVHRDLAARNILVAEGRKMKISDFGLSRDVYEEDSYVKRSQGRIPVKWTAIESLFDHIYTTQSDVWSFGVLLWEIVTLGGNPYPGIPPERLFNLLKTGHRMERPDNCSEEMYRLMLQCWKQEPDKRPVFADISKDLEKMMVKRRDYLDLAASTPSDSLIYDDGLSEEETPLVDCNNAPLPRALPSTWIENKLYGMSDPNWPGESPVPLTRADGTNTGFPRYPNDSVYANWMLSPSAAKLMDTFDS
UniProt Q9BRS2: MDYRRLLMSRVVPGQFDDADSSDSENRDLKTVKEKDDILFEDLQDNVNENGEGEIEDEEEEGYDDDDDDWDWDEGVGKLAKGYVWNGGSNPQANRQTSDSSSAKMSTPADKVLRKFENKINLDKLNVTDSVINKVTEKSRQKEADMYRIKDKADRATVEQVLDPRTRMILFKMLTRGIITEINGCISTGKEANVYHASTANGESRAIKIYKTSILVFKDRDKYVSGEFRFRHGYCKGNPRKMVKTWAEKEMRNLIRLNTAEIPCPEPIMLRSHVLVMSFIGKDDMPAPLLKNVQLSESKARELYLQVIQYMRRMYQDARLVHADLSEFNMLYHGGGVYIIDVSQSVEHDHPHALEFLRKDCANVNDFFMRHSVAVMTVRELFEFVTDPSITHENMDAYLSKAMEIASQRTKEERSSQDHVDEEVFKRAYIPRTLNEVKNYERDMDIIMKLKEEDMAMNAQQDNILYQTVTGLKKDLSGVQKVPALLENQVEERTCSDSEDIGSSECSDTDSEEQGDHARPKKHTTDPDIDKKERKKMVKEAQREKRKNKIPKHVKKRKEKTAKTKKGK
UniProt Q13546: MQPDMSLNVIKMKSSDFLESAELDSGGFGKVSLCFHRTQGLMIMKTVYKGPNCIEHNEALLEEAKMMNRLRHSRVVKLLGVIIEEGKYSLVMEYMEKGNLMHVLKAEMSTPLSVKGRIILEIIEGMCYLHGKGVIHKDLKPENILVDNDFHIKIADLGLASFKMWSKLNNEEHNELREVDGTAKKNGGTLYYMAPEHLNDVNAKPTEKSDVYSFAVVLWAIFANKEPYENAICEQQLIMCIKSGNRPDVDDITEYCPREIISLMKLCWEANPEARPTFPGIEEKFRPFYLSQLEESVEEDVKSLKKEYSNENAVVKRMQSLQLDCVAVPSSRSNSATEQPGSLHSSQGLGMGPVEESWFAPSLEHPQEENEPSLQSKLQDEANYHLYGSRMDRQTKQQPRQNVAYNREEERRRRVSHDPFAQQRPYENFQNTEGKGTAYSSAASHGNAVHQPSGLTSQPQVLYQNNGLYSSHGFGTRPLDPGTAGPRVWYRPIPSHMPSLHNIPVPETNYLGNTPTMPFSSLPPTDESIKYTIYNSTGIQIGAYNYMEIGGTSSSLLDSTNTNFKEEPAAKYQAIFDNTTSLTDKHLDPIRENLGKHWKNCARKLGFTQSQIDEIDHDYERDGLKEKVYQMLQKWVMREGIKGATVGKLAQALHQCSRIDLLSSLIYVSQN
UniProt Q01974, whole entry: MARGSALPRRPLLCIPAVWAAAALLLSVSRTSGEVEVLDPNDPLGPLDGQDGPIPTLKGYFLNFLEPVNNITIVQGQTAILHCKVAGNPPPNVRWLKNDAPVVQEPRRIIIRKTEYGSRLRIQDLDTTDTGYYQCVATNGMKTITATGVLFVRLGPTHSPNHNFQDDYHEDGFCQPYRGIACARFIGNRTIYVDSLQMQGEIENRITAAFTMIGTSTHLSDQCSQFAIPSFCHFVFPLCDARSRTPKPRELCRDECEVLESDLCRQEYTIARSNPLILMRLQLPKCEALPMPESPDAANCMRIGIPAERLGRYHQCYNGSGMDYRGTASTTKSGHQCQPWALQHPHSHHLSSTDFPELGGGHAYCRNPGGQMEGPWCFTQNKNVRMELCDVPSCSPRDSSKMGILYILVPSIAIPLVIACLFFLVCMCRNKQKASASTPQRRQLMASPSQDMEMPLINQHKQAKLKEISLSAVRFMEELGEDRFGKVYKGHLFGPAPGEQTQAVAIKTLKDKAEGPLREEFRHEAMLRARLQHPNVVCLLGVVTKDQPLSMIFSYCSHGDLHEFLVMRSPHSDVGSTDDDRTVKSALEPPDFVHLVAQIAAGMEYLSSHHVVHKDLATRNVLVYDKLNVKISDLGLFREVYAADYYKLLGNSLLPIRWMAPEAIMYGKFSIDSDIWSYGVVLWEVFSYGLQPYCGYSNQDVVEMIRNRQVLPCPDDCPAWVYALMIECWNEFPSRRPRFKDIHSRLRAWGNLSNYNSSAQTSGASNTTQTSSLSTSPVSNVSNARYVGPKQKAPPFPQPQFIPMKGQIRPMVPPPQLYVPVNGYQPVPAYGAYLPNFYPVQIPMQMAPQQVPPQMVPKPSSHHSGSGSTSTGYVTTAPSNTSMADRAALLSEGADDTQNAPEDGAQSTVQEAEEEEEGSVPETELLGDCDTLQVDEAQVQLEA
UniProt Q15418, whole entry: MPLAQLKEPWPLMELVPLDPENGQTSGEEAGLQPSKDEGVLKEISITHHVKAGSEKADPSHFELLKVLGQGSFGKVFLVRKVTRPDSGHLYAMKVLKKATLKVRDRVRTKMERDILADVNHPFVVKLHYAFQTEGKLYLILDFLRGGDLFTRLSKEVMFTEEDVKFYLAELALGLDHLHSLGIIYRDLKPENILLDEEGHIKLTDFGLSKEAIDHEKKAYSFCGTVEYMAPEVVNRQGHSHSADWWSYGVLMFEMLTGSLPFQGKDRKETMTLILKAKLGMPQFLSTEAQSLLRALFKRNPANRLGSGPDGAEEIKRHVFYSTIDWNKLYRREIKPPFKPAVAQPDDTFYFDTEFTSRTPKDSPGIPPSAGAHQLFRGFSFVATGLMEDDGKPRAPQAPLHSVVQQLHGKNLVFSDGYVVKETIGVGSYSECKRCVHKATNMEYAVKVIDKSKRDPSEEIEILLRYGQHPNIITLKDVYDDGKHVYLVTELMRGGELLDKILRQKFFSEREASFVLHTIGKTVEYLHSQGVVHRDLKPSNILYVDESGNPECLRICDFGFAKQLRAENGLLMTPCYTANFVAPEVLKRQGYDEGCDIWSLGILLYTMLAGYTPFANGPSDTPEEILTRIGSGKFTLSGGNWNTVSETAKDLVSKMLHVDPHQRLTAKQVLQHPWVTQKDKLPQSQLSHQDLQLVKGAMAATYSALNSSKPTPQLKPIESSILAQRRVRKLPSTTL
UniProt Q9NYA1, whole entry: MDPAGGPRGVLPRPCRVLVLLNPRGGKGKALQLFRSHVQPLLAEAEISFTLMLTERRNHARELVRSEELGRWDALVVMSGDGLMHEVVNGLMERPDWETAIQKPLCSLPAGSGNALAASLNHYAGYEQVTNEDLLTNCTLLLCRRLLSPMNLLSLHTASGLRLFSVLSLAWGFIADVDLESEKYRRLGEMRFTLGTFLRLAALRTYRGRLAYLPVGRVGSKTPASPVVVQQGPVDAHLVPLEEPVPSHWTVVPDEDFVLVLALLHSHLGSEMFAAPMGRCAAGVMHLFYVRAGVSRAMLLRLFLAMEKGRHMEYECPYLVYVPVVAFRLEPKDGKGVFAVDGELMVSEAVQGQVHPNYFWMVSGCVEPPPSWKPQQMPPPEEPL
UniProt Q9Y6E0: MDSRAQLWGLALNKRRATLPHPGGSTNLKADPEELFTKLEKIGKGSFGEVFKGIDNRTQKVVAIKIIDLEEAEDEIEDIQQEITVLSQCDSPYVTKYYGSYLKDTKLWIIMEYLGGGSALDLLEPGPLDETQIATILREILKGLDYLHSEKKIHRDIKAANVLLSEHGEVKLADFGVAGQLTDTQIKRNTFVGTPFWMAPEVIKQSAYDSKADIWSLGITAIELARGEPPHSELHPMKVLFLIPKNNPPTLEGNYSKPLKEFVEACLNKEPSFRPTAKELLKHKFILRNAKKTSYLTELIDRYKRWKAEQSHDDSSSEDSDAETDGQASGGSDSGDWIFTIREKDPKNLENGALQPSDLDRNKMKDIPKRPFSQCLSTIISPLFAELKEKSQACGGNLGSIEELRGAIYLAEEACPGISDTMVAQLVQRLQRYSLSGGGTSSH

Columns and labels:
Assay in all cases: kinase-Nluc reporter destabilization hit call (1 = scored as downregulated) (binary); higher = compound decreases kinase abundance
Settings in all cases: K562; 2-18 h
RET = RET (UniProt P07949)
[1] = biological target: RET_M918T (clone: RET_mut) (UniProt P07949)
RIOK1 = RIOK1 (UniProt Q9BRS2)
RIPK1 = RIPK1 (UniProt Q13546)
RIPK2 = RIPK2 (UniProt O43353)
ROR2 = ROR2 (UniProt Q01974)
RPS6KA1 = RPS6KA1 (UniProt Q15418)
SPHK1 = SPHK1 (UniProt Q9NYA1)
SRC = SRC (UniProt P12931)
STK24 = STK24 (UniProt Q9Y6E0)

Measured: kinase-Nluc reporter destabilization hit call

COCCNc1cc(NC(=O)N2CCCc3cc(CN4CCN(C)CC4=O)c(C=O)nc32)ncc1C#N [Roblitinib] (10 µM)
inactive: RET 0 | [1] 0 | RIOK1 = 0 | RIPK1 = 0 | RIPK2 = 0 | ROR2 = 0 | RPS6KA1 = 0 | SPHK1 = 0 | SRC 0 | STK24 = 0

O=C(O)c1cc(=O)c2c(OCC(O)COc3cccc4oc(C(=O)O)cc(=O)c34)cccc2o1 [Cromolyn (sodium)] (10 µM)
inactive: RET 0 | [1] 0 | RIOK1 = 0 | RIPK1 = 0 | RIPK2 = 0 | ROR2 = 0 | RPS6KA1 = 0 | SPHK1 = 0 | SRC 0 | STK24 = 0

CC(C)CNc1ccnc(NCc2csc(-c3ccccc3)n2)n1 [KHS101 hydrochloride] (2.5 µM)
inactive: RET 0 | [1] 0 | RIOK1 = 0 | RIPK1 = 0 | RIPK2 = 0 | ROR2 = 0 | RPS6KA1 = 0 | SPHK1 = 0 | SRC 0 | STK24 = 0

Cn1cc(C2=C(c3cccc(N)c3)C(=O)NC2=O)c2ccccc21 (10 µM)
inactive: RET 0 | [1] 0 | RIOK1 = 0 | RIPK1 = 0 | RIPK2 = 0 | ROR2 = 0 | RPS6KA1 = 0 | SPHK1 = 0 | SRC 0 | STK24 = 0

COc1nn(C)cc1Nc1nccc(-c2c[nH]c3c(NC(=O)[C@@H](C)N4CCN(C)CC4)cccc23)n1 (10 µM)
inactive: RET 0 | [1] 0 | RIOK1 = 0 | RIPK1 = 0 | RIPK2 = 0 | ROR2 = 0 | RPS6KA1 = 0 | SPHK1 = 0 | SRC 0 | STK24 = 0

C=CC(=O)N1C(=O)CC(c2ccc(F)cc2)Sc2ccccc21 (stereo not drawn) [GSK-3β inhibitor 3] (10 µM)
inactive: RET 0 | [1] 0 | RIOK1 = 0 | RIPK1 = 0 | RIPK2 = 0 | ROR2 = 0 | RPS6KA1 = 0 | SPHK1 = 0 | SRC 0 | STK24 = 0

Oc1cc(O)c2c(c1)OC1(c3ccc(O)c(O)c3)Oc3cc(O)c4c(c3C2C1O)OC(c1ccc(O)c(O)c1)C(O)C4 (stereo not given) [Procyanidin A1] (10 µM)
inactive: RET 0 | [1] 0 | RIOK1 = 0 | RIPK1 = 0 | RIPK2 = 0 | ROR2 = 0 | RPS6KA1 = 0 | SPHK1 = 0 | SRC 0 | STK24 = 0

c1ccc(-c2nc3c(c(-n4ccc5cnccc54)n2)CCC3)nc1 (10 µM)
inactive: RET 0 | [1] 0 | RIOK1 = 0 | RIPK1 = 0 | RIPK2 = 0 | ROR2 = 0 | RPS6KA1 = 0 | SPHK1 = 0 | SRC 0 | STK24 = 0

Cc1cc2sc(NC(=O)Cc3ccccc3)nc2cc1Cl (10 µM)
inactive: RET 0 | [1] 0 | RIOK1 = 0 | RIPK1 = 0 | RIPK2 = 0 | ROR2 = 0 | RPS6KA1 = 0 | SPHK1 = 0 | SRC 0 | STK24 = 0

CNc1nc(Nc2cn(C(C)(C)C#N)nc2C)ncc1C(F)(F)F (10 µM)
inactive: RET 0 | [1] 0 | RIOK1 = 0 | RIPK1 = 0 | RIPK2 = 0 | ROR2 = 0 | RPS6KA1 = 0 | SPHK1 = 0 | SRC 0 | STK24 = 0

Cc1cc(-c2ccnc(Nc3cnn(C)c3)n2)ccc1CNC(=O)N1CC(OC(C)C)C1 (10 µM)
inactive: RET 0 | [1] 0 | RIOK1 = 0 | RIPK1 = 0 | RIPK2 = 0 | ROR2 = 0 | RPS6KA1 = 0 | SPHK1 = 0 | SRC 0 | STK24 = 0

O=Nc1c2[nH]c3ccccc3nc-2c2ccccc12 [IQ-1S (free acid)] (2.5 µM)
inactive: RET 0 | [1] 0 | RIOK1 = 0 | RIPK1 = 0 | RIPK2 = 0 | ROR2 = 0 | RPS6KA1 = 0 | SPHK1 = 0 | SRC 0 | STK24 = 0

CC(C)=CCc1c(-c2ccc(O)cc2O)oc2c3c(cc(O)c2c1=O)OC(C)(C)C=C3 [Morusin] (2.5 µM)
inactive: RET 0 | [1] 0 | RIOK1 = 0 | RIPK1 = 0 | RIPK2 = 0 | ROR2 = 0 | RPS6KA1 = 0 | SPHK1 = 0 | SRC 0 | STK24 = 0

Random excerpt: 2 entries already listed, in no set order.
COCCNc1cc(NC(=O)N2CCCc3cc(CN4CCN(C)CC4=O)c(C=O)nc32)ncc1C#N [Roblitinib] (10 µM)
inactive: RET 0 | [1] 0 | RIOK1 = 0 | RIPK1 = 0 | RIPK2 = 0 | ROR2 = 0 | RPS6KA1 = 0 | SPHK1 = 0 | SRC 0 | STK24 = 0

COc1nn(C)cc1Nc1nccc(-c2c[nH]c3c(NC(=O)[C@@H](C)N4CCN(C)CC4)cccc23)n1 (10 µM)
inactive: RET 0 | [1] 0 | RIOK1 = 0 | RIPK1 = 0 | RIPK2 = 0 | ROR2 = 0 | RPS6KA1 = 0 | SPHK1 = 0 | SRC 0 | STK24 = 0

The listing continues.

N#Cc1ccnc(Nc2cc(C3CCN(C4COC4)CC3)cc(N3CCC(F)(F)C3)n2)c1 (2.5 µM)
inactive: RET 0 | [1] 0 | RIOK1 = 0 | RIPK1 = 0 | RIPK2 = 0 | ROR2 = 0 | RPS6KA1 = 0 | SPHK1 = 0 | SRC 0 | STK24 = 0

CNc1nc(Nc2ccc(C(=O)N3CCOCC3)cc2OC)ncc1Cl (2.5 µM)
inactive: RET 0 | [1] 0 | RIOK1 = 0 | RIPK1 = 0 | RIPK2 = 0 | ROR2 = 0 | RPS6KA1 = 0 | SPHK1 = 0 | SRC 0 | STK24 = 0

O=C(NCc1cccc(O)c1)Nc1nc(-c2ccncc2)cs1 (10 µM)
inactive: RET 0 | [1] 0 | RIOK1 = 0 | RIPK1 = 0 | RIPK2 = 0 | ROR2 = 0 | RPS6KA1 = 0 | SPHK1 = 0 | SRC 0 | STK24 = 0

COc1c(Nc2cc(C)[nH]n2)nc(Sc2ccc(S(=O)(=O)Cc3cccc([N+](=O)[O-])c3F)cc2F)nc1N1CCCCC1 [Centrinone-B] (2.5 µM)
inactive: RET 0 | [1] 0 | RIOK1 = 0 | RIPK1 = 0 | RIPK2 = 0 | ROR2 = 0 | RPS6KA1 = 0 | SPHK1 = 0 | SRC 0 | STK24 = 0

Cc1ccc2c(Nc3cccc(Cl)c3F)nccc2c1NC(=O)c1csc2c(N)ncnc12 [Belvarafenib] (10 µM)
inactive: RET 0 | [1] 0 | RIOK1 = 0 | RIPK1 = 0 | RIPK2 = 0 | ROR2 = 0 | RPS6KA1 = 0 | SPHK1 = 0 | SRC 0 | STK24 = 0

COc1ccc(/C=C/C(=O)C2(C(=O)/C=C/c3ccc(OC)c(OC)c3)CCCCC2)cc1OC (2.5 µM)
inactive: RET 0 | [1] 0 | RIOK1 = 0 | RIPK1 = 0 | RIPK2 = 0 | ROR2 = 0 | RPS6KA1 = 0 | SPHK1 = 0 | SRC 0 | STK24 = 0

CC[C@@](C)(Nc1ccnc(-c2c[nH]c3ncccc23)n1)C(=O)NCC(F)(F)F [Decernotinib] (10 µM)
inactive: RET 0 | [1] 0 | RIOK1 = 0 | RIPK1 = 0 | RIPK2 = 0 | ROR2 = 0 | RPS6KA1 = 0 | SPHK1 = 0 | SRC 0 | STK24 = 0

C=CCc1ccc(O)c(-c2ccc(O)c(CC=C)c2)c1 [Honokiol] (10 µM)
inactive: RET 0 | [1] 0 | RIOK1 = 0 | RIPK1 = 0 | RIPK2 = 0 | ROR2 = 0 | RPS6KA1 = 0 | SPHK1 = 0 | SRC 0 | STK24 = 0

CC(C)c1cccc(C(C)C)c1N1C(=O)c2ccc(N)cc2C1=O (2.5 µM)
inactive: RET 0 | [1] 0 | RIOK1 = 0 | RIPK1 = 0 | RIPK2 = 0 | ROR2 = 0 | RPS6KA1 = 0 | SPHK1 = 0 | SRC 0 | STK24 = 0

Cc1cnc(NC2CCOCC2)nc1-n1cnc(C(=O)N[C@H](CN)c2cc(F)cc(Cl)c2)c1 (10 µM)
inactive: RET 0 | [1] 0 | RIOK1 = 0 | RIPK1 = 0 | RIPK2 = 0 | ROR2 = 0 | RPS6KA1 = 0 | SPHK1 = 0 | SRC 0 | STK24 = 0

COc1ncccc1-c1cnn2ccc(N3CCN(C(=O)OC(C)C)CC3)nc12 (10 µM)
inactive: RET 0 | [1] 0 | RIOK1 = 0 | RIPK1 = 0 | RIPK2 = 0 | ROR2 = 0 | RPS6KA1 = 0 | SPHK1 = 0 | SRC 0 | STK24 = 0

Cc1nc(-c2cnn(C)c2)nc2c1[nH]c1ncc(-c3ccc(N4CCN(C)CC4)cc3)cc12 [GNE 220 (hydrochloride)] (10 µM)
inactive: RET 0 | [1] 0 | RIOK1 = 0 | RIPK1 = 0 | RIPK2 = 0 | ROR2 = 0 | RPS6KA1 = 0 | SPHK1 = 0 | SRC 0 | STK24 = 0

O=c1[nH]c(C2CCCN2)nc2c1oc1ccc(Cl)cc12 (stereo not given) [XL413 (hydrochloride)] (10 µM)
inactive: RET 0 | [1] 0 | RIOK1 = 0 | RIPK1 = 0 | RIPK2 = 0 | ROR2 = 0 | RPS6KA1 = 0 | SPHK1 = 0 | SRC 0 | STK24 = 0

Cc1c(-c2ccc(C(N)=O)c3[nH]c4cc(C(C)(C)O)ccc4c23)cccc1-n1cnc2ccccc2c1=O (2.5 µM)
inactive: RET 0 | [1] 0 | RIOK1 = 0 | RIPK1 = 0 | RIPK2 = 0 | ROR2 = 0 | RPS6KA1 = 0 | SPHK1 = 0 | SRC 0 | STK24 = 0

COc1cc2ncnc(-n3nc(-c4ccccn4)nc3N)c2cc1OC (10 µM)
inactive: RET 0 | [1] 0 | RIOK1 = 0 | RIPK1 = 0 | RIPK2 = 0 | ROR2 = 0 | RPS6KA1 = 0 | SPHK1 = 0 | SRC 0 | STK24 = 0

Cc1ccc(-c2csc3ncnc(SCCC(=O)O)c23)cc1 (10 µM)
inactive: RET 0 | [1] 0 | RIOK1 = 0 | RIPK1 = 0 | RIPK2 = 0 | ROR2 = 0 | RPS6KA1 = 0 | SPHK1 = 0 | SRC 0 | STK24 = 0

C[C@@H]1CCNC(=O)c2cc3ccc(C(=O)Nc4nc5ccccc5n4CCCN(C)C)cc3n21 (10 µM)
inactive: RET 0 | [1] 0 | RIOK1 = 0 | RIPK1 = 0 | RIPK2 = 0 | ROR2 = 0 | RPS6KA1 = 0 | SPHK1 = 0 | SRC 0 | STK24 = 0
